Measurements taken from PMC8288866, “MKRN3 regulates the epigenetic switch of mammalian puberty via ubiquitination of MBD3” (National Science Review, 2020).
Results are given in words; binding and its absence hold for the method and conditions named. Binding seen in cells or lysates may run through a third protein. Some entries that bind do so weakly or less than the wild type.

By UniProt entry, the sequences of proteins in these tests, tags left out. Residues count along the entry.
UniProt O95983: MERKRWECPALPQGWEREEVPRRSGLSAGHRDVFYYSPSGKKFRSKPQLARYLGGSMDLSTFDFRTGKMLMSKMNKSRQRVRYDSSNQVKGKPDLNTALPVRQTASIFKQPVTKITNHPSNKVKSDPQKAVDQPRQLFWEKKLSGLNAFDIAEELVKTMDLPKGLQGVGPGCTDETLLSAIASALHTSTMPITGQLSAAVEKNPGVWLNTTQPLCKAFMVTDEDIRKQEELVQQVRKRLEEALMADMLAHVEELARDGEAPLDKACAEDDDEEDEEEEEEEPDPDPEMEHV
UniProt Q4JK59, residues 1099-1912: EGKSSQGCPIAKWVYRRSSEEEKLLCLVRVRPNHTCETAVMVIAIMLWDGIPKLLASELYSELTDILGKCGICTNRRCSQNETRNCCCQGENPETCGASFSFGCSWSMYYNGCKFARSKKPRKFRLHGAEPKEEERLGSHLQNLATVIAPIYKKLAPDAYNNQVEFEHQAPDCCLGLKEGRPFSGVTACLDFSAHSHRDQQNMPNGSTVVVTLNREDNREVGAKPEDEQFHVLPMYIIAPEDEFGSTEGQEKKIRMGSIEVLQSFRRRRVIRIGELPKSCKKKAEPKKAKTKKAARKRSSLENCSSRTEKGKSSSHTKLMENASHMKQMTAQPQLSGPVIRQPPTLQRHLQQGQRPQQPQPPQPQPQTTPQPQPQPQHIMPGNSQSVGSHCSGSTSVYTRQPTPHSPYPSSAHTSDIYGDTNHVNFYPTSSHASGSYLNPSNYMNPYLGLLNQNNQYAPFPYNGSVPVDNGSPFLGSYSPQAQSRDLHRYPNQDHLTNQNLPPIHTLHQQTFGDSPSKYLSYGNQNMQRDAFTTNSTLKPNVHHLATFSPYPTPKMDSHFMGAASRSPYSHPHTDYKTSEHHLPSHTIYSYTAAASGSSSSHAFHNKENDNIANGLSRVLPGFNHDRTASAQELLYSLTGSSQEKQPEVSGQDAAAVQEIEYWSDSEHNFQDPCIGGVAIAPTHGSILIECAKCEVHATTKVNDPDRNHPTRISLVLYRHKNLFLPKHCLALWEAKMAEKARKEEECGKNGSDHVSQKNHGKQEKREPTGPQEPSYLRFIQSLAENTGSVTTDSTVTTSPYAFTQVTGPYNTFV

B1: endogenous MKRN3 (enzyme, UniProt Q13064 1-507)
chain: MEEPAAPSEAHEAAGAQAGAEAAREGVSGPDLPVCEPSGESAAPDSALPHAARGWAPFPVAPVPAHLRRGGLRPAPASGGGAWPSPLPSRSSGIWTKQIICRYYIHGQCKEGENCRYSHDLSGRKMATEGGVSPPGASAGGGPSTAAHIEPPTQEVAEAPPAASSLSLPVIGSAAERGFFEAERDNADRGAAGGAGVESWADAIEFVPGQPYRGRWVASAPEAPLQSSETERKQMAVGSGLRFCYYASRGVCFRGESCMYLHGDICDMCGLQTLHPMDAAQREEHMRACIEAHEKDMELSFAVQRGMDKVCGICMEVVYEKANPNDRRFGILSNCNHSFCIRCIRRWRSARQFENRIVKSCPQCRVTSELVIPSEFWVEEEEEKQKLIQQYKEAMSNKACRYFAEGRGNCPFGDTCFYKHEYPEGWGDEPPGPGGGSFSAYWHQLVEPVRMGEGNMLYKSIKKELVVLRLASLLFKRFLSLRDELPFSEDQWDLLHYELEEYFNLIL

Key:
[1] = molecular target: MBD3 (experiments of Supplementary Fig. 6G-I) (human) (UniProt O95983); assay: co-IP; immunoprecipitation assay with truncated TET2 and MBD3 (Supplementary Fig. 6H and I); cells and tags not stated
[2] = molecular target: endogenous MBD3 (human (endogenous in HEK293T)) (UniProt O95983); assay: co-IP; endogenous proteins of HEK293T cells; immunoprecipitation with anti-IgG or anti-MBD3, immunoblotting with anti-MKRN3 or anti-MBD3

Molecule | binding [1] | binding [2]
C-terminal region of TET2 (residues 1099–1912) (from UniProt Q4JK59 1099-1912) (domain or fragment) | binds | 
B1 |  | binds
